Record: PubChem BioAssay AID1224830 (NIAID, 2016)

Purpose: 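Genes whose knock-down alters the TNF-alpha reporter response to LPS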 (primary screen)
Cell system: human THP-1 monocytic leukaemia cells, TNF dual-luciferase reporter clone, PMA-differentiated to macrophage-like cells
Reagent: siRNA pool against human genes, 50 nM
Time to read-out: LPS for 4 h, given about 3 days after siRNA transfection
Conditions: bacterial LPS (TLR4 ligand), 10 ng/ml
Detection: 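Ratio of firefly to renilla light, scaled to the plate median and expressed as a robust z-score per replicate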
Reading the numbers: TNF reporter robust z-score: higher = stronger TNF reporter response to LPS
Call rule: 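a well is active when its z-score exceeds 2.8 or falls below -1.5; control wells carry no call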
Shown is a random part of about 18,000 deposited reagents. Over the whole deposit, about 2,900 (16%) are marked active. 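Calls are made per well; low scores hint the gene aids the LPS response, high scores that it dampens it.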 A number with no mark means an inactive call. Repeated entries: four replicate wells of each siRNA pool.

no.	gene	TNF reporter robust z-score
1	MICU3	1.5
2	MICU3	1.3
3	MICU3	1.54
4	MICU3	2.36
5	SPRY1	-0.47
6	SPRY1	1.77
7	SPRY1	0.46
8	SPRY1	1.75
9	HERC5	0.4
10	HERC5	0.17
11	HERC5	1.78
12	HERC5	0.5
13	SEC31B	-1.29
14	SEC31B	-0.65
15	SEC31B	-1.25
16	SEC31B	-1.32
17	TNNI3K	-1.72 (active)
18	TNNI3K	0.6
19	TNNI3K	-0.08
20	TNNI3K	1.21
21	FCER2	0.34
22	FCER2	0.39
23	FCER2	0.2
24	FCER2	0.14
25	TACR1	-1.79 (active)
26	TACR1	-1.06
27	TACR1	-1.34
28	TACR1	-0.2
29	CLCNKB	0.03
30	CLCNKB	1.13
31	CLCNKB	0.41
32	RNF207	0.84
33	RNF207	3.7 (active)
34	RNF207	0.75
35	RNF207	0.5
36	NRBP2	-0.77
37	NRBP2	-1.52 (active)
38	NRBP2	-0.97
39	NRBP2	-0.78
40	ACOT7	-0.2
41	ACOT7	0.42
42	ACOT7	-0.1
43	ACOT7	0.65
44	LUZP2	0.33
45	LUZP2	0.57
46	LUZP2	0.05
47	LUZP2	0.65

7 entries from above, reformatted:
{"gene": "ACOT7", "TNF reporter robust z-score": 0.42}
{"gene": "ACOT7", "TNF reporter robust z-score": -0.1}
{"gene": "ACOT7", "TNF reporter robust z-score": 0.65}
{"gene": "LUZP2", "TNF reporter robust z-score": 0.33}
{"gene": "LUZP2", "TNF reporter robust z-score": 0.57}
{"gene": "LUZP2", "TNF reporter robust z-score": 0.05}
{"gene": "LUZP2", "TNF reporter robust z-score": 0.65}
